# Test results taken from patent US12121581B2, “Method of photodynamic therapy” (OSLO UNIVERSITETSSYKEHUS HF, priority 2018, dated 2024).
# Tests used:
# [1] = system: breast adenocarcinoma cell line MCF7; test: Sub-cellular localisation of luminol derivatives, confocal microscopy with mitotracker green FM; assay type: cell-based; conditions: MCF7 cells, 4 hours treatment, mitotracker green FM co-stain
# [2] = system: glioblastoma cell line U87; test: as above; assay type: cell-based; conditions: U87 cells, 4 hours treatment, mitotracker green FM co-stain
# [3] = Energy transfer between luminol luminescence and photosensitizers
# [4] = luminol in aqueous carbonate buffer (pH 10.3) with CuSO4 and urea peroxide
Structure (SMILES),subcellular localisation [1],subcellular localisation [2],"photosensitizer fluorescence excited by luminol luminescence [3, 4]",further results
"O=C(CCCCC[P+](c1ccccc1)(c1ccccc1)c1ccccc1)Nc1cccc2c(=O)[nH][nH]c(=O)c12.[Br-] [AP47, (6-((1,4-dioxo-1,2,3,4-tetrahydrophthalazin-5-yl)amino)-6-oxohexyl)triphenylphosphonium bromide]",mitochondrial localisation,mitochondrial localisation,–,–
"O=c1[nH][nH]c(=O)c2c(NCCCCCC[P+](C3CCCCC3)(C3CCCCC3)C3CCCCC3)cccc12.[I-] [DZ160, tricyclohexyl(6-((1,4-dioxo-1,2,3,4-tetrahydrophthalazin-5-yl)amino)hexyl)phosphonium iodide]",mitochondrial localisation,mitochondrial localisation,–,–
"O=C1OC2(c3cc(I)c(O)c(I)c3Oc3c2cc(I)c(O)c3I)c2c(Cl)c(Cl)c(Cl)c(Cl)c21 [RB, Rose Bengal]",–,–,characteristic fluorescence of RB is obvious,–
O=S(=O)(O)c1ccc(-c2c3nc(c(-c4ccc(S(=O)(=O)O)cc4)c4ccc([nH]4)c(-c4ccc(S(=O)(=O)O)cc4)c4nc(c(-c5ccc(S(=O)(=O)O)cc5)c5ccc2[nH]5)C=C4)C=C3)cc1 [TPPS4],–,–,characteristic fluorescence of TPPS4 is not present,–
O.O=C([O-])c1ccccc1-c1c2cc(I)c(=O)c(I)c-2oc2c(I)c([O-])c(I)cc12.[Na+].[Na+] [erythrosin B],–,–,–,"photosensitizer fluorescence excited by luminol luminescence ([3]; luminol in DMSO alkalinised by potassium tert.butoxide): very strong fluorescence around 580 nm; luminescence around 1270 nm (singlet oxygen) ([3]; luminol in DMSO with potassium tert.butoxide, quenched by histidine): presence of singlet oxygen"
"Nc1cccc2c(=O)[nH][nH]c(=O)c12 [luminol, reference compound]",cytosolic localisation,cytosolic localisation,–,–
